The target in assay [1] is GFP-tagged human Fyn (human) (UniProt P06241). As to the kind of experiment: co-IP; anti-GFP–coupled magnetic beads, NP-40 detergent-insoluble fraction of GFP–Fyn–expressing N2a cells (EV control), overnight at 4 °C; Western blot for Fyn and PP2Ac.
Assay [2] concerns the target Fyn (endogenous) (mouse (endogenous in mouse cortex and N2a cells)) (UniProt P39688). Put plainly: co-IP; Fyn immunoprecipitates from total mouse cortical homogenates (~500 μg protein, precleared, antibody overnight at 4 °C, Protein A/G magnetic beads, washed in buffer with 1% NP-40 + 0.5% deoxycholate); Western blot for PP2Ac. (A western blot detects proteins with antibodies after separation by electrophoresis.)

Protein sequences, listed by entry. Tags and fused reporters are not part of them. Lines headed by an entry give the natural chain unless they say otherwise; changes in a name come on top.
UniProt P06241: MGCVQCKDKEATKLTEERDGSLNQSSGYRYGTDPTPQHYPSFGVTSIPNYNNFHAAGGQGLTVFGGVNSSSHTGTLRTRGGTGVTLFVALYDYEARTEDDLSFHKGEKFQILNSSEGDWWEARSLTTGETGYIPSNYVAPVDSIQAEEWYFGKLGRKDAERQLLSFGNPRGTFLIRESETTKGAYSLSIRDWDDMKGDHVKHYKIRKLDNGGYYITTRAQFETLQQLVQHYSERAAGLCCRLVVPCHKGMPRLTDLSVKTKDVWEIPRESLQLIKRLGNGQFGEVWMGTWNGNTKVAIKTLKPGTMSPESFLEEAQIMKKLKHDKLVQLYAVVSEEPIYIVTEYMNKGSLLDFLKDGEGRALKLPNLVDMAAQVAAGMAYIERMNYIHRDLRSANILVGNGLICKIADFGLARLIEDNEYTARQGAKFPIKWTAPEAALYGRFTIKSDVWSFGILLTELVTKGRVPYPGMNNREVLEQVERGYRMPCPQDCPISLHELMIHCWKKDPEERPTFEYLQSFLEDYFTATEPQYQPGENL
UniProt P39688: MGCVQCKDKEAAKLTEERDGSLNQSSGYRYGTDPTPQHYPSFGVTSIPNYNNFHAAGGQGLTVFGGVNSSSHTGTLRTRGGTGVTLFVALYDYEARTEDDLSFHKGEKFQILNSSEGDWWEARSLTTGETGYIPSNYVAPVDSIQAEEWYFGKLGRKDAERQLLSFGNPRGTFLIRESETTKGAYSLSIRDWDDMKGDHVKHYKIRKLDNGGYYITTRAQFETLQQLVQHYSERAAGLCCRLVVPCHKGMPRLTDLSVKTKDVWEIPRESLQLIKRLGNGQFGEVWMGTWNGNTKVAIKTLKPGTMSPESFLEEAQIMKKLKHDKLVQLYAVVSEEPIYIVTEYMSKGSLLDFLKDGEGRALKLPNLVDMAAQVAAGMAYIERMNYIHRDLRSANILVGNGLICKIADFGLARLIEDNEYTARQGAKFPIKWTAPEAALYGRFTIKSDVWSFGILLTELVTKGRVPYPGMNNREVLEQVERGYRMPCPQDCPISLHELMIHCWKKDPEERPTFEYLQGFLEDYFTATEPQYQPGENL
UniProt P63330: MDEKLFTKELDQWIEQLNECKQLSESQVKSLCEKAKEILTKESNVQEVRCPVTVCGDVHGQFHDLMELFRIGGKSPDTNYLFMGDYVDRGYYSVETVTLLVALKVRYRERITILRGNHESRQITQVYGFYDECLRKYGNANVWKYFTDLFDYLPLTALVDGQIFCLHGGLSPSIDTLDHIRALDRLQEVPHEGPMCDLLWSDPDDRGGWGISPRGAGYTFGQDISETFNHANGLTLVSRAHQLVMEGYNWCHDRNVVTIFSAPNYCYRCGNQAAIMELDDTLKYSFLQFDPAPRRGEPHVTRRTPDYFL

Our source for the binding values is paper PMC7948947.

Results are given in words; binding and its absence hold for the method and conditions named. In cells and extracts the contact can be indirect. A result given as binding can be weak or reduced; the word gives no strength.

For the substance “PP2A catalytic "C" subunit (PP2Ac), endogenous (from UniProt P63330)”, the binding result in assay [1] and in assay [2] was “binds” each time.
